Experimental data from patent US20220193201A1, “GLP-1R AGONIST REDUCES RETINAL INFLAMMATION AND NEURON DEATH SECONDARY TO OCULAR HYPERTENSION” (THE TRUSTEES OF THE UNIVERSITY OF PENNSYLVANIA, priority 2020, published 2022).
For at least one compound, name, drawing or mass did not settle the structure.

System: retinal ganglion cells (RGCs)
Test: Retinal ganglion cell loss (RBPMS flatmounts), hypertensive mouse glaucoma model, topical liraglutide
Assay type: in vivo
Conditions: twice daily to the corneal surface, 6 weeks, fellow eye BSS

CCCCCCCCCCCCCCCC(=O)N[C@@H](CCC(=O)NCCCC[C@H](NC(=O)[C@H](C)NC(=O)[C@H](C)NC(=O)[C@H](CCC(N)=O)NC(=O)CNC(=O)[C@H](CCC(=O)O)NC(=O)[C@H](CC(C)C)NC(=O)[C@H](Cc1ccc(O)cc1)NC(=O)[C@H](CO)NC(=O)[C@H](CO)NC(=O)[C@@H](NC(=O)[C@H](CC(=O)O)NC(=O)[C@H](CO)NC(=O)[C@@H](NC(=O)[C@H](Cc1ccccc1)NC(=O)[C@@H](NC(=O)CNC(=O)[C@H](CCC(=O)O)NC(=O)[C@H](C)NC(=O)[C@@H](N)Cc1cnc[nH]1)[C@@H](C)O)[C@@H](C)O)C(C)C)C(=O)N[C@@H](CCC(=O)O)C(=O)N[C@@H](Cc1ccccc1)C(=O)N[C@H](C(=O)N[C@@H](C)C(=O)N[C@@H](Cc1c[nH]c2ccccc12)C(=O)N[C@@H](CC(C)C)C(=O)N[C@H](C(=O)N[C@@H](CCCNC(=N)N)C(=O)NCC(=O)N[C@@H](CCCNC(=N)N)C(=O)NCC(=O)O)C(C)C)[C@@H](C)CC)C(=O)O [liraglutide]
RGC loss (RBPMS-stained retinal flatmounts): reduced
